Results are given in words; binding and its absence hold for the method and conditions named. Some entries that bind do so weakly or less than the wild type.
How the values were obtained:
[1] = target: full-length human PDGF-C (Example 6) (human) (UniProt Q9NRA1); experiment: ELISA
[2] = target: T1, human PDGF-C peptide no. 27 (human); experiment: peptide ELISA
T1 peptide: Biotin-EPGFCIHYNIVMPQF

Protein sequences, listed by entry. Tags and fused reporters are not part of them. Residues count along the entry.
UniProt Q9NRA1, residues 23-345: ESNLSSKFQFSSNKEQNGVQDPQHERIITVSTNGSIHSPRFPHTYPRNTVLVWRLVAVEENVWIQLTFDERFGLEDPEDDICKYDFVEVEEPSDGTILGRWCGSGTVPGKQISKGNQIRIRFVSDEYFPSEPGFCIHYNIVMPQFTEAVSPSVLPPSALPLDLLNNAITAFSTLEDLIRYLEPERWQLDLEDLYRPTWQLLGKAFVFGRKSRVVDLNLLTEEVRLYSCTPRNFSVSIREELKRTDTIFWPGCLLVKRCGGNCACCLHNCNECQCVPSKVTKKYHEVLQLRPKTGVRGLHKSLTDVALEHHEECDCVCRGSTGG

[3] = target: T2, human PDGF-C peptide no. 1 (human); experiment: peptide ELISA
T2 sequence (peptide, N-terminally biotinylated): ESNLSSKFQFSSNKE

[4] = target: T3, human PDGF-C peptide no. 10 (human); experiment: peptide ELISA
T3 sequence (peptide, N-terminally biotinylated): PRNTVLVWRLVAVEE

[5] = target: T4, human PDGF-C peptide no. 12 (human); experiment: peptide ELISA
T4 sequence (peptide, N-terminally biotinylated): VAVEENVWIQLTFDE

[6] = target: T5, human PDGF-C peptide no. 13 (human); experiment: peptide ELISA
T5 sequence (peptide, N-terminally biotinylated): NVWIQLTFDERFGLE

[7] = target: T6, human PDGF-C peptide no. 14 (human); experiment: peptide ELISA
T6 sequence (peptide, N-terminally biotinylated): LTFDERFGLEDPEDD

[8] = target: T7, human PDGF-C peptide no. 15 (human); experiment: peptide ELISA
T7 sequence (peptide, N-terminally biotinylated): RFGLEDPEDDICKYD

[9] = target: T8, human PDGF-C peptide no. 16 (human); experiment: peptide ELISA
T8 sequence (peptide, N-terminally biotinylated): DPEDDICKYDFVEVE

[10] = target: T9, human PDGF-C peptide no. 17 (human); experiment: peptide ELISA
T9 sequence (peptide, N-terminally biotinylated): ICKYDFVEVEEPSDG

[11] = target: T10, human PDGF-C peptide no. 18 (human); experiment: peptide ELISA
T10 sequence (peptide, N-terminally biotinylated): FVEVEEPSDGTILGR

[12] = target: T11, human PDGF-C peptide no. 2 (human); experiment: peptide ELISA
T11 sequence (peptide, N-terminally biotinylated): SKFQFSSNKEQNGVQ

[13] = target: T12, human PDGF-C peptide no. 21 (human); experiment: peptide ELISA
T12 sequence (peptide, N-terminally biotinylated): WCGSGTVPGKQISKG

[14] = target: T13, human PDGF-C peptide no. 22 (human); experiment: peptide ELISA
T13 sequence (peptide, N-terminally biotinylated): TVPGKQISKGNQIRI

[15] = target: T14, human PDGF-C peptide no. 23 (human); experiment: peptide ELISA
T14 sequence (peptide, N-terminally biotinylated): QISKGNQIRIRFVSD

[16] = target: T15, human PDGF-C peptide no. 25 (human); experiment: peptide ELISA
T15 sequence (peptide, N-terminally biotinylated): RFVSDEYFPSEPGFC

[17] = target: T16, human PDGF-C peptide no. 26 (human); experiment: peptide ELISA
T16 sequence (peptide, N-terminally biotinylated): EYFPSEPGFCIHYNI

[18] = target: T17, human PDGF-C peptide no. 28 (human); experiment: peptide ELISA
T17 sequence (peptide, N-terminally biotinylated): IHYNIVMPQFTEAVS

[19] = target: T18, human PDGF-C peptide no. 29 (human); experiment: peptide ELISA
T18 sequence (peptide, N-terminally biotinylated): VMPQFTEAVSPSVLP

[20] = target: T19, human PDGF-C peptide no. 30 (human); experiment: peptide ELISA
T19 sequence (peptide, N-terminally biotinylated): TEAVSPSVLPPSALP

[21] = target: T20, human PDGF-C peptide no. 32 (human); experiment: peptide ELISA
T20 sequence (peptide, N-terminally biotinylated): PSALPLDLLNNAITA

[22] = target: T21, human PDGF-C peptide no. 33 (human); experiment: peptide ELISA
T21 sequence (peptide, N-terminally biotinylated): LDLLNNAITAFSTLE

[23] = target: T22, human PDGF-C peptide no. 34 (human); experiment: peptide ELISA
T22 sequence (peptide, N-terminally biotinylated): NAITAFSTLEDLIRY

[24] = target: T23, human PDGF-C peptide no. 35 (human); experiment: peptide ELISA
T23 sequence (peptide, N-terminally biotinylated): FSTLEDLIRYLEPER

[25] = target: T24, human PDGF-C peptide no. 36 (human); experiment: peptide ELISA
T24 sequence (peptide, N-terminally biotinylated): DLIRYLEPERWQLDL

[26] = target: T25, human PDGF-C peptide no. 37 (human); experiment: peptide ELISA
T25 sequence (peptide, N-terminally biotinylated): LEPERWQLDLEDLYR

[27] = target: T26, human PDGF-C peptide no. 38 (human); experiment: peptide ELISA
T26 sequence (peptide, N-terminally biotinylated): WQLDLEDLYRPTWQL

[28] = target: T27, human PDGF-C peptide no. 39 (human); experiment: peptide ELISA
T27 sequence (peptide, N-terminally biotinylated): EDLYRPTWQLLGKAF

[29] = target: T28, human PDGF-C peptide no. 4 (human); experiment: peptide ELISA
T28 sequence (peptide, N-terminally biotinylated): QNGVQDPQHERIITV

[30] = target: T29, human PDGF-C peptide no. 41 (human); experiment: peptide ELISA
T29 sequence (peptide, N-terminally biotinylated): LGKAFVFGRKSRVVD

[31] = target: T30, human PDGF-C peptide no. 43 (human); experiment: peptide ELISA
T30 sequence (peptide, N-terminally biotinylated): SRVVDLNLLTEEVRL

[32] = target: T31, human PDGF-C peptide no. 44 (human); experiment: peptide ELISA
T31 sequence (peptide, N-terminally biotinylated): LNLLTEEVRLYSCTP

[33] = target: T32, human PDGF-C peptide no. 46 (human); experiment: peptide ELISA
T32 sequence (peptide, N-terminally biotinylated): YSCTPRNFSVSIREE

[34] = target: T33, human PDGF-C peptide no. 48 (human); experiment: peptide ELISA
T33 sequence (peptide, N-terminally biotinylated): SIREELKRTDTIFWP

[35] = target: T34, human PDGF-C peptide no. 49 (human); experiment: peptide ELISA
T34 sequence (peptide, N-terminally biotinylated): LKRTDTIFWPGCLLV

[36] = target: T35, human PDGF-C peptide no. 5 (human); experiment: peptide ELISA
T35 sequence (peptide, N-terminally biotinylated): DPQHERIITVSTNGS

[37] = target: T36, human PDGF-C peptide no. 50 (human); experiment: peptide ELISA
T36 sequence (peptide, N-terminally biotinylated): TIFWPGCLLVKRCGG

[38] = target: T37, human PDGF-C peptide no. 53 (human); experiment: peptide ELISA
T37 sequence (peptide, N-terminally biotinylated): NCACCLHNCNECQCV

[39] = target: T38, human PDGF-C peptide no. 54 (human); experiment: peptide ELISA
T38 sequence (peptide, N-terminally biotinylated): LHNCNECQCVPSKVT

[40] = target: T39, human PDGF-C peptide no. 55 (human); experiment: peptide ELISA
T39 sequence (peptide, N-terminally biotinylated): ECQCVPSKVTKKYHE

[41] = target: T40, human PDGF-C peptide no. 56 (human); experiment: peptide ELISA
T40 sequence (peptide, N-terminally biotinylated): PSKVTKKYHEVLQLR

[42] = target: T41, human PDGF-C peptide no. 57 (human); experiment: peptide ELISA
T41 sequence (peptide, N-terminally biotinylated): KKYHEVLQLRPKTGV

[43] = target: T42, human PDGF-C peptide no. 59 (human); experiment: peptide ELISA
T42 sequence (peptide, N-terminally biotinylated): PKTGVRGLHKSLTDV

[44] = target: T43, human PDGF-C peptide no. 6 (human); experiment: peptide ELISA
T43 sequence (peptide, N-terminally biotinylated): RIITVSTNGSIHSPR

[45] = target: T44, human PDGF-C peptide no. 60 (human); experiment: peptide ELISA
T44 sequence (peptide, N-terminally biotinylated): RGLHKSLTDVALEHH

[46] = target: T45, human PDGF-C peptide no. 62 (human); experiment: peptide ELISA
T45 sequence (peptide, N-terminally biotinylated): ALEHHEECDCVCRGS

[47] = target: T46, human PDGF-C peptide no. 63 (human); experiment: peptide ELISA
T46 sequence (peptide, N-terminally biotinylated): EECDCVCRGSTGG

[48] = target: T47, human PDGF-C peptide no. 8 (human); experiment: peptide ELISA
T47 sequence (peptide, N-terminally biotinylated): IHSPRFPHTYPRNTV

B1: anti-PDGF-C antibody 2D3 (antibody, IgG1, V domains shown)
VH: EVQLVESGGDLVKPGGSLKLSCAASGFTFSNYGMSWVRQTPDKRLEWVATIGSGGSYTYYPDSVKGRFTISRDSAKNTLYLQMSSLKSEDTAMYYCARQAPLWDYSDYWGQGTTLTVSS
VL: DVLMTQTPLSLPVSLGDQASISCRSNQTIVHSNGDTYLEWYLQKPGQSPNLLIYKVSNRFSGVPDRFSGSGSGTDFTLKISRVEAEDLGVYYCFQGSHVPPTFGGGTKLEIK
notes: Mouse monoclonal from hybridoma, IgG1, kappa; also called mAb 2D3; hybridoma LMBP 9483CB
[1]
  binding: binds
[2]
  binding: no binding (tested: 1 µg/mL)
[3]
  binding: no binding (tested: 1 µg/mL)
[4]
  binding: no binding (tested: 1 µg/mL)
[5]
  binding: no binding (tested: 1 µg/mL)
[6]
  binding: no binding (tested: 1 µg/mL)
[7]
  binding: no binding (tested: 1 µg/mL)
[8]
  binding: no binding (tested: 1 µg/mL)
[9]
  binding: no binding (tested: 1 µg/mL)
[10]
  binding: no binding (tested: 1 µg/mL)
[11]
  binding: no binding (tested: 1 µg/mL)
[12]
  binding: no binding (tested: 1 µg/mL)
[13]
  binding: no binding (tested: 1 µg/mL)
[14]
  binding: no binding (tested: 1 µg/mL)
[15]
  binding: no binding (tested: 1 µg/mL)
[16]
  binding: no binding (tested: 1 µg/mL)
[17]
  binding: no binding (tested: 1 µg/mL)
[18]
  binding: no binding (tested: 1 µg/mL)
[19]
  binding: no binding (tested: 1 µg/mL)
[20]
  binding: no binding (tested: 1 µg/mL)
[21]
  binding: no binding (tested: 1 µg/mL)
[22]
  binding: no binding (tested: 1 µg/mL)
[23]
  binding: no binding (tested: 1 µg/mL)
[24]
  binding: no binding (tested: 1 µg/mL)
[25]
  binding: no binding (tested: 1 µg/mL)
[26]
  binding: no binding (tested: 1 µg/mL)
[27]
  binding: no binding (tested: 1 µg/mL)
[28]
  binding: no binding (tested: 1 µg/mL)
[29]
  binding: no binding (tested: 1 µg/mL)
[30]
  binding: no binding (tested: 1 µg/mL)
[31]
  binding: no binding (tested: 1 µg/mL)
[32]
  binding: no binding (tested: 1 µg/mL)
[33]
  binding: no binding (tested: 1 µg/mL)
[34]
  binding: no binding (tested: 1 µg/mL)
[35]
  binding: no binding (tested: 1 µg/mL)
[36]
  binding: no binding (tested: 1 µg/mL)
[37]
  binding: no binding (tested: 1 µg/mL)
[38]
  binding: no binding (tested: 1 µg/mL)
[39]
  binding: no binding (tested: 1 µg/mL)
[40]
  binding: no binding (tested: 1 µg/mL)
[41]
  binding: no binding (tested: 1 µg/mL)
[42]
  binding: no binding (tested: 1 µg/mL)
[43]
  binding: no binding (tested: 1 µg/mL)
[44]
  binding: no binding (tested: 1 µg/mL)
[45]
  binding: no binding (tested: 1 µg/mL)
[46]
  binding: no binding (tested: 1 µg/mL)
[47]
  binding: no binding (tested: 1 µg/mL)
[48]
  binding: no binding (tested: 1 µg/mL)

Source: patent publication US20150232546A1 (THROMBOGENICS, published 2015)
